Source: PubChem BioAssay AID1347076 (National Center for Advancing Translational Sciences (NCATS), 2019)
The whole screen tested about 400,000 compounds, of which about 13,000 (3.2%) were called active. The shares of active, inactive and inconclusive entries below differ from those in the screen. The call rests on the fitted dose curve; in most records, active means well fitted cell-killing curve with a large enough effect; inconclusive means small, poorly fitted or top-dose-only effect, or effect the other way; inactive means flat fitted curve, though single readings scatter. Where the call is inconclusive, the potency comes from a doubtful curve fit.

Experiment: qHTS assay for MDR1-selective chemotherapeutics: Primary screen using the drug-selected MDR subline cells KB-V1; further: nearly all actives have a fitted effect of over 60% in size
Details: KB-V1 MDR cells viability, CellTiter-Glo, 72 h; activity change, negative = cytotoxicity: at 46.1 µM (top of the series)
In short: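 In this primary screen, KB-V1 cells overexpressing P-gp are incubated with library compounds (lowest to highest concentration) for 72 h at 37 degrees C before a luminescent ATP viability read.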
On the % scale 0 is the no-effect control and ±100 the full control effect; potency means the concentration at half of the fitted maximal effect.

Row | SMILES | Potency | activity change, negative = cytotoxicity
1 | S=c1[nH]nc(COc2ccccc2)n1Cc1ccccc1 | inconclusive: 20.6 µM [cytotoxic, single point] | 
2 | Cc1ccc(NC2C(=O)NC(=O)NC2=O)cc1 | inactive | 
3 | Cc1cc(C)c2c(CC(=O)N(CCC#N)Cc3cccnc3)coc2c1 | inconclusive: 25.9 µM [cytotoxic, single point] | 
4 | CCCCn1c(SCC(=O)NCc2ccco2)nnc1-c1ccco1 | inconclusive: 35.5 µM [cytotoxic, single point] | 
5 | COc1ccc(NC(=S)N(CCC(C)C)C2CCN(C(C)C)CC2)cc1 | inactive | 
6 | O=C(CCn1c(=O)oc2ccccc21)Nc1cccc(Br)c1 | inconclusive: 20.6 µM [cytotoxic, single point] | 
7 | Cc1ccc([C@H]2C[C@H](O)[C@@H](n3cc(COC(=O)c4ccccc4)nn3)CN2CC2CCCCC2)cc1 | inconclusive: 20.6 µM [cytotoxic, single point] | 
8 | CCOc1ccc(CCNC(=O)CSc2nnnn2-c2ccc(C)cc2C)cc1OCC | inconclusive: 7.31 µM [cytotoxic, partial curve] | 
9 | Cc1ccc(CNCC(O)(c2ccc(F)cc2)c2ccc(F)cc2)cc1 | inactive | 
10 | Cc1ccccc1N1CCN(C2CCCN(C(=O)c3cn4cccc(C)c4n3)C2)CC1 (stereo unspecified) | inconclusive: 29.1 µM [cytotoxic, single point] | 
11 | CCNC(=O)N1CCNC(=O)C1CC(=O)Nc1ccc(C(=O)OCC)cc1 (stereo unspecified) | inconclusive: 23.1 µM [rising, partial curve, poor fit] | 
12 | Cc1occc1-c1nnc(SCC(=O)NCCc2ccccc2)n1C(C)c1ccccc1 (stereo unspecified) | inconclusive: 14.6 µM [cytotoxic, partial curve, poor fit] | 
13 | O=C(OCC(=O)N1CCCc2ccccc21)c1ccc(S(=O)(=O)C(F)F)cc1 | inconclusive: 29.1 µM [cytotoxic, single point] | 
14 | COc1ccc(OC(C)C(=O)NCc2nc(-c3cccc(C)c3)no2)cc1 (stereo unspecified) | inactive | 
15 | COc1cc(OC)c(NC(=O)C(Cc2ccccc2)NS(=O)(=O)c2cccc3nsnc23)cc1Cl (stereo unspecified) | inactive | 
16 | COc1ccc(S(=O)(=O)N2CCCCCC2)cc1C(=O)OCc1c(C)noc1C | inconclusive: 0.82 µM [cytotoxic, full curve, poor fit] | 
17 | Cc1c(C(=O)N(C)C)c2ccc(Cl)cc2n1O | inactive | 
18 | CC(=O)Nc1cc(-c2cccc(F)c2)cn2c(-c3ccc(S(C)(=O)=O)cc3)cnc12 | inactive | 
19 | O=C(Cn1nnc(-c2cc(C(F)(F)F)cc(C(F)(F)F)c2)n1)NNC(=S)Nc1ccc(Cl)cc1 | inactive | 
20 | COc1ccc(-c2ccc3ncnc(NCc4ccc(C)o4)c3c2)cc1OC | inconclusive: 29.1 µM [cytotoxic, single point] | 
21 | COc1ccc(-c2cc(C(=O)Nc3c(C)nn(Cc4ccccc4Cl)c3C)no2)cc1OC | inconclusive: 8.2 µM [cytotoxic, partial curve, poor fit] | 
22 | COc1ccccc1-c1cccc(-c2nc(C(=O)N3CCCCC3)cc3c2[C@H](CCO)N(S(=O)C(C)(C)C)C3)c1 (stereo partly specified) | inconclusive: 23.1 µM [cytotoxic, single point] | 
23 | CN1CCN(Cc2cccc(Oc3ccc(Cl)cc3)c2)CC1 | inactive | 
24 | CCCCC(=O)NC1(C(F)(F)F)C(=O)Nc2c1c(=O)[nH]c(=O)n2-c1ccc(C)c(C)c1 (stereo unspecified) | inconclusive: 29.1 µM [rising, single point] | 

Row | SMILES | Potency | activity change, negative = cytotoxicity
25 | COc1ccc(/C=C/C(=O)c2cc3c(cc2N)OCO3)cc1 | inconclusive: 20.6 µM [cytotoxic, single point] | 
26 | CC(C)CCNC(=O)CN1C(=O)c2cccnc2Sc2ccccc21 | inactive | 
27 | COc1ccc(CCNC(=O)/C(C#N)=C2\N=C(NC(=O)c3cccs3)c3ccccc32)cc1 | active: 10.3 µM | 
28 | CCCOc1ccc(NCC(=O)Nc2ccc(C)cc2C)cc1 | inconclusive: 20.6 µM [cytotoxic, partial curve, poor fit] | 
29 | CC(OC(=O)c1ccccc1C(=O)N(C)c1ccccc1)C(=O)Nc1ccc(C(N)=O)cc1 (stereo unspecified) | inactive | 
30 | COc1cccc(S(=O)(=O)NCc2ccc(C(=O)N3CCN(Cc4ccccc4)CC3)cc2)c1 | inconclusive: 2.31 µM [cytotoxic, partial curve, poor fit] | 
31 | CCC(C(=O)OCC(=O)Nc1c(Cl)cccc1Cl)c1ccccc1 (stereo unspecified) | inactive | 
32 | COc1ccc([C@H]2CC(=O)C=C(c3ccc(OC)cc3OC)C2)cc1 | active: 1.46 µM | 
33 | O=C(CCCNC(=O)/C(=C/c1ccccc1F)NC(=O)c1ccccc1)OCc1ccccc1 | inconclusive: 29.1 µM [cytotoxic, single point] | 
34 | CCc1nc(SCC(=O)Nc2cc(C)ccc2OC)c2c(C)c(C)sc2n1 | inconclusive: 11.6 µM [cytotoxic, partial curve] | 
35 | CCc1ccc(Nc2n[n+](-c3ccccc3)c(-c3ccc(OC)c(Br)c3)s2)cc1 | inactive | 
36 | CCOC(=O)C1=C(C)N(C)C(C)=C(C(=O)OCC)C1c1ccc(Cl)cc1 |  | inconclusive: -32%
37 | Cc1ccc(/C=N/n2c(-c3cccnc3)n[nH]c2=S)s1 | inactive | 
38 | CC(C)N(C(=O)CN1CCN(S(=O)(=O)c2ccc(Br)s2)CC1)C(C)C | active: 23.1 µM | 
39 | Cc1cccc(NC(=O)C(=O)NCC2CCCN2S(=O)(=O)c2cccs2)c1 (stereo unspecified) | inconclusive: 18.4 µM [cytotoxic, partial curve, poor fit] | 
40 | Cc1ccc(-n2nc(C)c3c(-c4cccs4)c(C#N)c(N)nc32)cc1 | inconclusive: 29.1 µM [cytotoxic, single point] | 
41 | c1ccc(N2CCN(c3nc4cc5c(cc4s3)OCCO5)CC2)cc1 | active: 2.59 µM | 
42 | Cc1ccc(C(=O)OCC(=O)N(Cc2ccccc2)C(C)C)cc1C | active: 20.6 µM | 
43 | COc1ccc(CNCCC(c2ccc(OC(C)C)cc2)C(C)C)cc1OC (stereo unspecified) | active: 5.17 µM | 
44 | Cc1c(C)n2c(SCC(=O)Nc3cccc4ccccc34)nnc2[nH]c1=O | inactive | 
45 | COc1cc(/C=C2\SC(=S)N(CCC(=O)NCCc3ccccc3)C2=O)cc(OC)c1OC | inconclusive: 29.1 µM [cytotoxic, single point] | 
46 | Cc1ccc(S(=O)(=O)c2c(N)n(CC3CCOC3)c3nc4ccccc4nc23)cc1 (stereo unspecified) | inconclusive: 20.6 µM [cytotoxic, single point] | 
47 | O=C(Nc1nc(N2C(=O)c3ccccc3C2=O)n(-c2ccccc2)n1)c1ccc(Cl)cc1 | inactive | 
48 | O=C(/C=C/c1ccc(Cl)cc1Cl)NC(=S)Nc1ccc(CN2CCOCC2)cc1 | inconclusive: 7.31 µM [cytotoxic, partial curve] | 

Row | SMILES | Potency | activity change, negative = cytotoxicity
49 | CC(=O)Nc1ccc(NC(=O)CSc2nnc(N)n2-c2ccccc2)cc1 |  | inconclusive: -55.3%
50 | COc1ccc([C@H]2CC(=O)C=C(c3cc(F)ccc3OC)C2)cc1 |  | inconclusive: 30.1%
51 | COc1cccc(Oc2cn[nH]c2-c2ccc(OC)cc2O)c1 | inconclusive: 29.1 µM [cytotoxic, single point] | 
52 | O=c1[nH]c2ccc(NCc3ccc(-c4ccc(F)cc4)o3)cc2[nH]1 | inactive | 
53 | CCOC(=O)c1sc2nc(C)nc(SCC(=O)N(CC)C3CCS(=O)(=O)C3)c2c1C (stereo unspecified) | inconclusive: 29.1 µM [cytotoxic, single point] | 
54 | CCC(O)C1CCN(Cc2cn(-c3ccc(OC)cc3)nc2-c2cccc(F)c2)CC1 (stereo unspecified) | inconclusive: 2.91 µM [cytotoxic, partial curve] | 
55 | COc1ccc(CNC(=O)c2nn(C)c3c2CS(=O)(=O)c2ccccc2-3)cc1 | inactive | 
56 | CC(C)(O)C#Cc1ccc(CNC[C@H]2O[C@@H](n3cnc4c(N)ncnc43)[C@H](O)[C@@H]2O)s1 | inactive | 
57 | CCOC(=O)N1CCN(S(=O)(=O)N2CCCC(C(=O)NCCCN3CCCCC3)C2)CC1 (stereo unspecified) | inactive | 
58 | CC(=O)c1c(C)[nH]c(C(=O)COC(=O)c2cccc(S(=O)(=O)N(C)c3ccccc3)c2)c1C | active: 11.6 µM | 
59 | CCOc1ccc(S(=O)(=O)N2CCN(C(=O)C3CSC4(C)CCC(=O)N34)CC2)cc1 (stereo unspecified) | inconclusive: 16.4 µM [cytotoxic, single point] | 
60 | CCS(=O)(=O)N1Cc2ccccc2CC1C(=O)NCC12CC3CC(CC(C3)C1)C2 (stereo unspecified) | active: 23.1 µM | 
61 | CC(=O)c1ccc(NC(=O)CSc2ccc3nnc(CCNS(=O)(=O)c4ccc(C)cc4)n3n2)cc1 | inactive | 
62 | Cc1ccc(Nc2ncc(C(=O)Nc3ccc(F)cc3F)c3ccccc23)cc1Cl | inactive | 
63 | Cc1nn(-c2ccccc2)c(Cl)c1/C=C1\C(=O)N(C)C(=S)N1C | inconclusive: 10.3 µM [cytotoxic, partial curve] | 
64 | O=C(Nc1ccc2c(c1)CN(C(=O)Nc1ccc(F)cc1)CC2)c1ccccn1 | inconclusive: 2.59 µM [cytotoxic, partial curve, poor fit] | 
65 | CCN=C1S/C(=C\c2ccc(Sc3ccc(Cl)cc3)o2)C(=O)N1CC | inactive | 
66 | CCOc1cc(CNCCSc2nnnn2C)cc(Br)c1OCc1ccccc1F | inconclusive: 10.3 µM [cytotoxic, partial curve] | 
67 | COc1ccc(CCNC(=O)CCS(=O)(=O)c2cc3c(cc2Cl)NC(=O)CO3)cc1OC | inactive | 
68 | COc1ccc(-c2noc(CSc3nnc(Cc4ccccc4)n3-c3cccc(C)c3)n2)cc1 | inactive | 
69 | CCCCNC(=S)Nc1cccc(S(=O)(=O)NC2=NCCC2)c1 | inactive | 
70 | CCCCCCCC1CC(CSc2ncn[nH]2)OC1=O (stereo unspecified) | inconclusive: 23.1 µM [rising, partial curve, poor fit] | 
71 | CCOC(=O)Cc1c(C)nc2c(-c3ccc(Cl)cc3)c(C(F)(F)F)nn2c1C | inactive | 

Part of the list above in order of number of heavy atoms, descending.
Row | SMILES | Potency | activity change, negative = cytotoxicity
22 | COc1ccccc1-c1cccc(-c2nc(C(=O)N3CCCCC3)cc3c2[C@H](CCO)N(S(=O)C(C)(C)C)C3)c1 (stereo partly specified) | inconclusive: 23.1 µM [cytotoxic, single point] | 
7 | Cc1ccc([C@H]2C[C@H](O)[C@@H](n3cc(COC(=O)c4ccccc4)nn3)CN2CC2CCCCC2)cc1 | inconclusive: 20.6 µM [cytotoxic, single point] | 
19 | O=C(Cn1nnc(-c2cc(C(F)(F)F)cc(C(F)(F)F)c2)n1)NNC(=S)Nc1ccc(Cl)cc1 | inactive | 
58 | CC(=O)c1c(C)[nH]c(C(=O)COC(=O)c2cccc(S(=O)(=O)N(C)c3ccccc3)c2)c1C | active: 11.6 µM | 
47 | O=C(Nc1nc(N2C(=O)c3ccccc3C2=O)n(-c2ccccc2)n1)c1ccc(Cl)cc1 | inactive | 
54 | CCC(O)C1CCN(Cc2cn(-c3ccc(OC)cc3)nc2-c2cccc(F)c2)CC1 (stereo unspecified) | inconclusive: 2.91 µM [cytotoxic, partial curve] | 
53 | CCOC(=O)c1sc2nc(C)nc(SCC(=O)N(CC)C3CCS(=O)(=O)C3)c2c1C (stereo unspecified) | inconclusive: 29.1 µM [cytotoxic, single point] | 
48 | O=C(/C=C/c1ccc(Cl)cc1Cl)NC(=S)Nc1ccc(CN2CCOCC2)cc1 | inconclusive: 7.31 µM [cytotoxic, partial curve] | 
20 | COc1ccc(-c2ccc3ncnc(NCc4ccc(C)o4)c3c2)cc1OC | inconclusive: 29.1 µM [cytotoxic, single point] | 
49 | CC(=O)Nc1ccc(NC(=O)CSc2nnc(N)n2-c2ccccc2)cc1 |  | inconclusive: -55.3%
5 | COc1ccc(NC(=S)N(CCC(C)C)C2CCN(C(C)C)CC2)cc1 | inactive | 
26 | CC(C)CCNC(=O)CN1C(=O)c2cccnc2Sc2ccccc21 | inactive | 
52 | O=c1[nH]c2ccc(NCc3ccc(-c4ccc(F)cc4)o3)cc2[nH]1 | inactive | 
63 | Cc1nn(-c2ccccc2)c(Cl)c1/C=C1\C(=O)N(C)C(=S)N1C | inconclusive: 10.3 µM [cytotoxic, partial curve] | 
6 | O=C(CCn1c(=O)oc2ccccc21)Nc1cccc(Br)c1 | inconclusive: 20.6 µM [cytotoxic, single point] | 
1 | S=c1[nH]nc(COc2ccccc2)n1Cc1ccccc1 | inconclusive: 20.6 µM [cytotoxic, single point] | 
37 | Cc1ccc(/C=N/n2c(-c3cccnc3)n[nH]c2=S)s1 | inactive | 
17 | Cc1c(C(=O)N(C)C)c2ccc(Cl)cc2n1O | inactive | 
